# Experimental data from the supplement of paper PMC8728848.
# This is one part of the list.
# B1: Thrombomodulin Lectin (Mus musculus) (protein)
# chain: LSALAKLQPTGSQCVEHECFALFQGPATFLDASQACQRLQGHLMTVRSSVAADVISLLLSQSSMDLGPWIGLQLPQGCDDPVHLGPLRGFQWVTGDNHTSYSRWARPNDQTAPLCGPLCVTVSTATEAAPGEPAWEEKPCETETQGFLCEFYFTASCRVDPIPVREDTKEEEGAGEPPVSPTPGSPTGPPSARPVLDEPRVPITQNPCPPLKECPPCAAPDLEGGPSVFIFPPKIKDVLMISLSPMVTCVVVDVSEDDPDVQISWFVNNVEVHTAQTQTHREDYNSTLRVVSALPIQHQDWMSGKAFACAVNNRALPSPIEKTISKPRGPVRAPQVYVLPPPAEEMTKKEFSLTCMITGFLPAEIAVDWTSNGRTEQNYKNTATVLDSDGSYFMYSKLRVQKSTWERGSLFACSVVHEGLHNHLTTKTISRSLGK
# Key:
# Test in all cases: glycan array binding signal (z-score within array); higher = stronger binding
# Settings in all cases: glycan notation: IUPAC condensed, linker removed
# [1] = target: Neu5Ac(a2-3)Gal(b1-3)]Neu5Ac(a2-3)Gal(b1-4)]GlcNAc
# Procedure, shortened: (§1)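 Glycan array binding is given as a within-array Z-score, which can be read as non-binding when negative. The arrays, 3228 of them, came from the Consortium for Functional Glycomics database and were retained only where the protein sequence was available. Z-scores were averaged across arrays of the same protein sequence at different concentrations or buffers and across linkers.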
# [2] = target: Neu5Ac(a2-3)Gal(b1-4)Glc
# Procedure, shortened: as §1
# [3] = target: Neu5Ac(a2-3)Gal(b1-4)GlcNAc
# Procedure, shortened: as §1
# [4] = target: Neu5Ac(a2-3)Gal(b1-4)GlcNAc(b1-2)Man
# Procedure, shortened: as §1
# [5] = target: Neu5Ac(a2-3)Gal(b1-4)GlcNAc(b1-2)Man(a1-3)[GlcNAc(b1-4)][Neu5Ac(a2-3)Gal(b1-4)GlcNAc(b1-2)Man(a1-6)]Man(b1-4)GlcNAc(b1-4)GlcNAc
# Procedure, shortened: as §1
# [6] = target: Neu5Ac(a2-3)Gal(b1-4)GlcNAc(b1-2)Man(a1-3)[Neu5Ac(a2-3)Gal(b1-4)GlcNAc(b1-2)Man(a1-6)]Man(b1-4)GlcNAc(b1-4)GlcNAc
# Procedure, shortened: as §1
# [7] = target: Neu5Ac(a2-3)Gal(b1-4)GlcNAc(b1-2)Man(a1-3)[Neu5Ac(a2-3)Gal(b1-4)GlcNAc(b1-2)Man(a1-6)]Man(b1-4)GlcNAc(b1-4)[Fuc(a1-6)]GlcNAc
# Procedure, shortened: as §1
# [8] = target: Neu5Ac(a2-3)Gal(b1-4)GlcNAc(b1-2)Man(a1-3)[Neu5Ac(a2-6)Gal(b1-4)GlcNAc(b1-2)Man(a1-6)]Man(b1-4)GlcNAc(b1-4)GlcNAc
# Procedure, shortened: as §1
# [9] = target: Neu5Ac(a2-3)Gal(b1-4)GlcNAc(b1-2)[Neu5Ac(a2-3)Gal(b1-4)GlcNAc(b1-4)]Man(a1-3)[GlcNAc(b1-4)][Neu5Ac(a2-3)Gal(b1-4)GlcNAc(b1-2)[Neu5Ac(a2-3)Gal(b1-4)GlcNAc(b1-6)]Man(a1-6)]Man(b1-4)GlcNAc(b1-4)GlcNAc
# Procedure, shortened: as §1
# [10] = target: Neu5Ac(a2-3)Gal(b1-4)GlcNAc(b1-2)[Neu5Ac(a2-3)Gal(b1-4)GlcNAc(b1-4)]Man(a1-3)[GlcNAc(b1-4)][Neu5Ac(a2-3)Gal(b1-4)GlcNAc(b1-4)Man(a1-6)]Man(b1-4)GlcNAc(b1-4)GlcNAc
# Procedure, shortened: as §1
# [11] = target: Neu5Ac(a2-3)Gal(b1-4)GlcNAc(b1-2)[Neu5Ac(a2-3)Gal(b1-4)GlcNAc(b1-6)]Man(a1-6)[Neu5Ac(a2-3)Gal(b1-4)GlcNAc(b1-2)Man(a1-3)][GlcNAc(b1-4)]Man(b1-4)GlcNAc(b1-4)GlcNAc
# Procedure, shortened: as §1
# [12] = target: Neu5Ac(a2-3)Gal(b1-4)GlcNAc(b1-3)Gal
# Procedure, shortened: as §1
# [13] = target: Neu5Ac(a2-3)Gal(b1-4)GlcNAc(b1-3)Gal(b1-3)GlcNAc
# Procedure, shortened: as §1
# [14] = target: Neu5Ac(a2-3)Gal(b1-4)GlcNAc(b1-3)Gal(b1-4)GlcNAc
# Procedure, shortened: as §1
# [15] = target: Neu5Ac(a2-3)Gal(b1-4)GlcNAc(b1-3)Gal(b1-4)GlcNAc(b1-2)Man(a1-3)[Neu5Ac(a2-3)Gal(b1-4)GlcNAc(b1-3)Gal(b1-4)GlcNAc(b1-2)Man(a1-6)]Man(b1-4)GlcNAc(b1-4)GlcNAc
# Procedure, shortened: as §1
# [16] = target: Neu5Ac(a2-3)Gal(b1-4)GlcNAc(b1-3)Gal(b1-4)GlcNAc(b1-3)Gal(b1-4)GlcNAc
# Procedure, shortened: as §1
# [17] = target: Neu5Ac(a2-3)Gal(b1-4)GlcNAc(b1-3)Gal(b1-4)GlcNAc(b1-3)Gal(b1-4)GlcNAc(b1-2)Man(a1-3)[Neu5Ac(a2-3)Gal(b1-4)GlcNAc(b1-3)Gal(b1-4)GlcNAc(b1-3)Gal(b1-4)GlcNAc(b1-2)Man(a1-6)]GalNAc
# Procedure, shortened: as §1
# [18] = target: Neu5Ac(a2-3)Gal(b1-4)GlcNAc(b1-3)Gal(b1-4)GlcNAc(b1-3)GalNAc
# Procedure, shortened: as §1
# [19] = target: Neu5Ac(a2-3)Gal(b1-4)GlcNAc(b1-3)Gal(b1-4)GlcNAc(b1-3)[Neu5Ac(a2-3)Gal(b1-4)GlcNAc(b1-3)Gal(b1-4)GlcNAc(b1-6)]GalNAc
# Procedure, shortened: as §1
# [20] = target: Neu5Ac(a2-3)Gal(b1-4)GlcNAc(b1-3)Gal(b1-4)GlcNAc(b1-6)[Gal(b1-3)]GalNAc
# Procedure, shortened: as §1
# [21] = target: Neu5Ac(a2-3)Gal(b1-4)GlcNAc(b1-3)Gal(b1-4)[Fuc(a1-3)]GlcNAc
# Procedure, shortened: as §1
# [22] = target: Neu5Ac(a2-3)Gal(b1-4)GlcNAc(b1-3)GalNAc
# Procedure, shortened: as §1
# [23] = target: Neu5Ac(a2-3)Gal(b1-4)GlcNAc(b1-3)[Neu5Ac(a2-3)Gal(b1-4)GlcNAc(b1-6)]GalNAc
# Procedure, shortened: as §1
# [24] = target: Neu5Ac(a2-3)Gal(b1-4)GlcNAc(b1-6)GalNAc
# Procedure, shortened: as §1
# [25] = target: Neu5Ac(a2-3)Gal(b1-4)GlcNAc(b1-6)[Gal(b1-3)]GalNAc
# Procedure, shortened: as §1
# [26] = target: Neu5Ac(a2-3)Gal(b1-4)GlcNAc(b1-6)[Neu5Ac(a2-3)Gal(b1-3)]GalNAc
# Procedure, shortened: as §1
# [27] = target: Neu5Ac(a2-3)Gal(b1-4)GlcNAc6S
# Procedure, shortened: as §1
# [28] = target: Neu5Ac(a2-3)Gal(b1-4)[Fuc(a1-3)]GlcNAc
# Procedure, shortened: as §1
# [29] = target: Neu5Ac(a2-3)Gal(b1-4)[Fuc(a1-3)]GlcNAc(b1-2)Man
# Procedure, shortened: as §1
# [30] = target: Neu5Ac(a2-3)Gal(b1-4)[Fuc(a1-3)]GlcNAc(b1-3)Gal
# Procedure, shortened: as §1
# [31] = target: Neu5Ac(a2-3)Gal(b1-4)[Fuc(a1-3)]GlcNAc(b1-3)Gal(b1-4)GlcNAc
# Procedure, shortened: as §1
# [32] = target: Neu5Ac(a2-3)Gal(b1-4)[Fuc(a1-3)]GlcNAc(b1-3)Gal(b1-4)[Fuc(a1-3)]GlcNAc(b1-3)Gal(b1-4)[Fuc(a1-3)]GlcNAc
# Procedure, shortened: as §1
# [33] = target: Neu5Ac(a2-3)Gal(b1-4)[Fuc(a1-3)]GlcNAc(b1-3)GalNAc
# Procedure, shortened: as §1
# [34] = target: Neu5Ac(a2-3)Gal(b1-4)[Fuc(a1-3)]GlcNAc(b1-6)[Gal(b1-3)]GalNAc
# Procedure, shortened: as §1
# [35] = target: Neu5Ac(a2-3)Gal(b1-4)[Fuc(a1-3)]GlcNAc(b1-6)[Neu5Ac(a2-3)Gal(b1-3)]GalNAc
# Procedure, shortened: as §1
# [36] = target: Neu5Ac(a2-3)Gal(b1-4)[Fuc(a1-3)]GlcNAc6S
# Procedure, shortened: as §1
# [37] = target: Neu5Ac(a2-3)Gal6S(b1-4)GlcNAc
# Procedure, shortened: as §1
# [38] = target: Neu5Ac(a2-3)Gal6S(b1-4)[Fuc(a1-3)]GlcNAc
# Procedure, shortened: as §1
binder,measurement,setting,value
B1,glycan array binding signal (z-score),[1],-0.991
same,glycan array binding signal (z-score),[2],0.498
same,glycan array binding signal (z-score),[3],0.503
same,glycan array binding signal (z-score),[4],-1.13
same,glycan array binding signal (z-score),[5],0.99
same,glycan array binding signal (z-score),[6],1.59
same,glycan array binding signal (z-score),[7],0.699
same,glycan array binding signal (z-score),[8],-0.525
same,glycan array binding signal (z-score),[9],1.05
same,glycan array binding signal (z-score),[10],-0.118
same,glycan array binding signal (z-score),[11],-1.34
same,glycan array binding signal (z-score),[12],-0.006
same,glycan array binding signal (z-score),[13],-0.763
same,glycan array binding signal (z-score),[14],0.675
same,glycan array binding signal (z-score),[15],-0.306
same,glycan array binding signal (z-score),[16],-0.325
same,glycan array binding signal (z-score),[17],0.803
same,glycan array binding signal (z-score),[18],1.05
same,glycan array binding signal (z-score),[19],0.399
same,glycan array binding signal (z-score),[20],1.24
same,glycan array binding signal (z-score),[21],0.786
same,glycan array binding signal (z-score),[22],-0.462
same,glycan array binding signal (z-score),[23],1.22
same,glycan array binding signal (z-score),[24],-0.63
same,glycan array binding signal (z-score),[25],-0.65
same,glycan array binding signal (z-score),[26],-0.743
same,glycan array binding signal (z-score),[27],-0.422
same,glycan array binding signal (z-score),[28],-1.84
same,glycan array binding signal (z-score),[29],1.18
same,glycan array binding signal (z-score),[30],-0.357
same,glycan array binding signal (z-score),[31],0.227
same,glycan array binding signal (z-score),[32],-0.936
same,glycan array binding signal (z-score),[33],1.67
same,glycan array binding signal (z-score),[34],-0.561
same,glycan array binding signal (z-score),[35],-0.316
same,glycan array binding signal (z-score),[36],-0.4
same,glycan array binding signal (z-score),[37],0.309
same,glycan array binding signal (z-score),[38],0.298

# Random excerpt: 2 records from the list, in no set order.
binder,measurement,setting,value
B1,glycan array binding signal (z-score),[23],1.22
same,glycan array binding signal (z-score),[30],-0.357
